Results published in paper PMC8803816.
No constants are given. Whether binding was seen depends on the method and setting. In cells and extracts the contact can be indirect. Some binding calls cover weakened binding; strength is not graded here. Tags and fused reporters may be left off the sequences shown.

Molecular target: T1, A20-Flag-Strep-Strep WT (UniProt P21580)
T1 sequence: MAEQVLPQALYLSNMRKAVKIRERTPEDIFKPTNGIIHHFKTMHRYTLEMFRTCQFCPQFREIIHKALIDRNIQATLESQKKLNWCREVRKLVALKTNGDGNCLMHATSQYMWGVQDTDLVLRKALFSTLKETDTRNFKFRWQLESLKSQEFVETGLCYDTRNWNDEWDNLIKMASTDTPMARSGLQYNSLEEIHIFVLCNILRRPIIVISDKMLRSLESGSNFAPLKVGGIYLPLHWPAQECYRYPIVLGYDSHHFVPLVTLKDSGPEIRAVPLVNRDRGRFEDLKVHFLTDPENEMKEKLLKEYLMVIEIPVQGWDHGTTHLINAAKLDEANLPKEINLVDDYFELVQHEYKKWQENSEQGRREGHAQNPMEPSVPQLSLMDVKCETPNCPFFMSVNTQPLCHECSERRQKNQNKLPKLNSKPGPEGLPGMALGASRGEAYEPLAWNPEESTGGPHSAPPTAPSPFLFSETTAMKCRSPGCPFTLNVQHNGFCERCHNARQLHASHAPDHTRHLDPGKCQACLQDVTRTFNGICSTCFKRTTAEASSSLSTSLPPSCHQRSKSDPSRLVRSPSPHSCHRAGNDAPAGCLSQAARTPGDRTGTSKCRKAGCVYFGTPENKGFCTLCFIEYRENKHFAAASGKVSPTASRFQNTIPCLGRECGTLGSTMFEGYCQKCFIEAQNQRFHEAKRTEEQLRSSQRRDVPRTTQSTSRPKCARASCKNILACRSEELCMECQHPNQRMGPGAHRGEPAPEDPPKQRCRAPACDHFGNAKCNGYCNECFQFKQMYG
Test: pull-down; Strep-PD (Strep-Tactin Sepharose) of FS-tagged A20 from lysates of transduced A20 KO Jurkat T cells after P/I stimulation; Western blot

- binding: binds
B1: Caspase recruitment domain 11 (CARD11) (protein, UniProt Q9BXL7 1-1154)
chain: MPGGGPEMDDYMETLKDEEDALWENVECNRHMLSRYINPAKLTPYLRQCKVIDEQDEDEVLNAPMLPSKINRAGRLLDILHTKGQRGYVVFLESLEFYYPELYKLVTGKEPTRRFSTIVVEEGHEGLTHFLMNEVIKLQQQMKAKDLQRCELLARLRQLEDEKKQMTLTRVELLTFQERYYKMKEERDSYNDELVKVKDDNYNLAMRYAQLSEEKNMAVMRSRDLQLEIDQLKHRLNKMEEECKLERNQSLKLKNDIENRPKKEQVLELERENEMLKTKNQELQSIIQAGKRSLPDSDKAILDILEHDRKEALEDRQELVNRIYNLQEEARQAEELRDKYLEEKEDLELKCSTLGKDCEMYKHRMNTVMLQLEEVERERDQAFHSRDEAQTQYSQCLIEKDKYRKQIRELEEKNDEMRIEMVRREACIVNLESKLRRLSKDSNNLDQSLPRNLPVTIISQDFGDASPRTNGQEADDSSTSEESPEDSKYFLPYHPPQRRMNLKGIQLQRAKSPISLKRTSDFQAKGHEEEGTDASPSSCGSLPITNSFTKMQPPRSRSSIMSITAEPPGNDSIVRRYKEDAPHRSTVEEDNDSGGFDALDLDDDSHERYSFGPSSIHSSSSSHQSEGLDAYDLEQVNLMFRKFSLERPFRPSVTSVGHVRGPGPSVQHTTLNGDSLTSQLTLLGGNARGSFVHSVKPGSLAEKAGLREGHQLLLLEGCIRGERQSVPLDTCTKEEAHWTIQRCSGPVTLHYKVNHEGYRKLVKDMEDGLITSGDSFYIRLNLNISSQLDACTMSLKCDDVVHVRDTMYQDRHEWLCARVDPFTDHDLDMGTIPSYSRAQQLLLVKLQRLMHRGSREEVDGTHHTLRALRNTLQPEEALSTSDPRVSPRLSRASFLFGQLLQFVSRSENKYKRMNSNERVRIISGSPLGSLARSSLDATKLLTEKQEELDPESELGKNLSLIPYSLVRAFYCERRRPVLFTPTVLAKTLVQRLLNSGGAMEFTICKSDIVTRDEFLRRQKTETIIYSREKNPNAFECIAPANIEAVAAKNKHCLLEAGIGCTRDLIKSNIYPIVLFIRVCEKNIKRFRKLLPRPETEEEFLRVCRLKEKELEALPCLYATVEPDMWGSVEELLRVVKDKIGEEQRKTIWVDEDQL
